Results as given in PubChem BioAssay AID504467 (National Center for Advancing Translational Sciences (NCATS), 2011).
In all, about 330,000 compounds went through this assay and about 7,700 (2.3%) were called active. The shares of active, inactive and inconclusive entries below differ from those in the screen. Calls come from the whole dose curve; as a rule, active = well fitted inhibition curve with a large enough effect; inconclusive = small, poorly fitted or top-dose-only effect, or effect the other way; inactive = flat fitted curve, though single readings scatter. Where the call is inconclusive, the potency comes from a doubtful curve fit.

assay: qHTS screen for small molecules that inhibit ELG1-dependent DNA repair in human embryonic kidney (HEK293T) cells expressing luciferase-tagged ELG1; conditions: HEK293T ELG1-luciferase reporter, luminescence, 16 h, DNA damage induced by 5-fluorouridine; activity change, negative = inhibition: at 46.1 µM (top of the series); note: nearly all actives have a fitted effect of over 55% in size
In short: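 Overnight (16 hr) co-exposure of 2,000 cells/well to 5-fluorouridine and compound at 37 °C preceded detection. Luciferase was quantified via ONE-Glo luminescence; loss of signal denotes inhibition.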
% is set by controls: 0 for no effect and ±100 for the full control effect; potency is the fitted concentration of half-maximal effect.

Structure (SMILES) | Potency | activity change, negative = inhibition
Cc1c(C(=O)Nc2ccc(Br)cc2)cnn1C | inconclusive: 20.6 µM [activator, partial curve] | 
COc1ccccc1N(C)S(=O)(=O)c1ccc(C(=O)Nc2ccncc2)cc1 | active: 11.6 µM | 
Nc1ccc(-c2sc(N)nc2-c2ccccc2)cc1 | inconclusive: 20.6 µM [activator, partial curve, poor fit] | 
NNC(=O)c1cc2cc(Oc3ccccc3)ccc2[nH]1 |  | inactive: -1.49%
O=C(O)CN(CCc1ccccc1)S(=O)(=O)c1ccccc1 |  | inactive: 0.365%
O=C(NC(=S)Nc1ccc(N2CCOCC2)cc1)c1ccccc1 | inconclusive: 2.91 µM [activator, single point] | 
CC(=O)c1c(C)[nH]c(C(=O)Nc2ccccc2N2CCOCC2)c1C | inconclusive: 20.6 µM [activator, partial curve] | 
CCCCN1CCCCC1C(=O)Nc1c(C)cc(C)cc1C (configuration not stated) | inconclusive: 20.6 µM [inhibitor, single point] | 
Cc1cccc(NC(=O)CSc2nc3ccccc3nc2N2CC(C)OC(C)C2)c1 (configuration not stated) | inconclusive: 18.3 µM [inhibitor, single point] | 
Oc1ccccc1CN1CCCC(N2CCc3ccccc3C2)C1 (configuration not stated) | inconclusive: 12.6 µM [inhibitor, partial curve, poor fit] | 
CCN1C(=O)/C(=C2/C=Cc3ccccc3N2C)OC1=S | inconclusive: 18.4 µM [activator, single point] | 
CCS(=O)(=O)c1ccc(C(=O)NC2CC2)c(Cl)c1Cl |  | inactive: 2.25%
COc1c(OC(C)=O)ccc(/C=C/c2ccc3cccc(OCc4ccccc4)c3n2)c1[N+](=O)[O-] | inconclusive: 29.1 µM [inhibitor, single point] | 
COc1ccc(N(CC(=O)NCCC2=CCCCC2)S(=O)(=O)c2ccc(C)cc2)cc1OC | active: 14.6 µM | 
COCCn1c(=S)[nH]c2cc(C(=O)N3CCc4ccccc43)ccc2c1=O | inconclusive: 20.6 µM [inhibitor, single point] | 
CCOC(=O)c1c(C)c(C#N)c2c3ccccc3ccn12 | inconclusive: 18.4 µM [activator, single point] | 
Cc1cccc(-c2nc3ccccc3c(=O)n2NC(=O)Cc2ccc(Cl)cc2)c1 |  | inactive: 16.5%
CCOC(=O)c1ccc(NC(=O)c2cc3ccccc3o2)cc1 |  | inactive: -0.744%
CCOC(=O)C1CCN(C(=O)NC23CC4CC(CC(C4)C2)C3)CC1 |  | inactive: -2.05%
CCOc1ccccc1NC(=O)C(c1ccccc1)N1CCN(CC(=O)N2CCCC2)CC1 (configuration not stated) | inconclusive: 7.3 µM [inhibitor, single point] | 
O=C(OCc1nc2ccccc2s1)c1ccccc1O | inconclusive: 9.2 µM [activator, partial curve] | 
COc1ccc(/C=C2/SC(=S)N(CCCC(=O)N3CCN(C)CC3)C2=O)cc1 | inconclusive: 18.3 µM [inhibitor, partial curve] | 
Cc1ccc(NC(=O)c2ccc(=O)[nH]n2)cc1S(=O)(=O)Nc1ccccc1Cl |  | inactive: 21.4%
Cc1[nH]nc2c1C(c1cccnc1)N(c1ccc(Br)cc1)C2=O (configuration not stated) | inconclusive: 32.6 µM [inhibitor, single point] | 

Structure (SMILES) | Potency | activity change, negative = inhibition
COc1cc(/C=N/Nc2ccccc2C(F)(F)F)ccc1O | inconclusive: 20.6 µM [activator, partial curve] | 
CCN1CCN(c2ccc(S(=O)(=O)N3CCCCC3)cc2NC(=O)c2ccc([N+](=O)[O-])o2)CC1 | inconclusive: 23.1 µM [inhibitor, single point] | 
CCC(C)NS(=O)(=O)c1ccc(S(=O)(=O)N(CC(=O)Nc2ccccc2)Cc2ccco2)cc1 (configuration not stated) | active: 18.4 µM | 
COc1ccc(CCNC(=O)c2ccc(OCc3c(C)noc3C)cc2)cc1OC | inconclusive: 32.6 µM [inhibitor, single point] | 
O=c1nc2ccc(Cl)cn2c2ccc(S(=O)(=O)N3CCOCC3)cc12 |  | inactive: 11.7%
CCOC(=O)C1(Cc2ccc(OC)cc2)CCN(C(=O)c2ccc3[nH]ccc3c2)CC1 |  | inactive: -15.2%
COc1ccc(N2CCN(C(=O)c3cccnc3SCc3cccc(Br)c3)CC2)cc1 | inconclusive: 32.6 µM [inhibitor, single point] | 
COc1cc(NC(=O)CN(C)S(=O)(=O)c2ccc3c(c2)CC(C)N3C(C)=O)cc(OC)c1 (configuration not stated) | inconclusive: 23.1 µM [inhibitor, single point] | 
O=C1c2cccc(Sc3ccccc3)c2C(=O)c2c(Sc3ccccc3)cccc21 | inconclusive: 25.9 µM [activator, partial curve, poor fit] | 
CCN(CC(=O)NCc1cccs1)C(=O)c1ccc([N+](=O)[O-])o1 |  | inactive: -11.9%
CO/N=C1\CCn2c1c(C)c1ccccc12 |  | inactive: 0%
O=C(c1ccc(Cl)c(S(=O)(=O)N2CCCC2)c1)N1CCN(c2ccc(F)cc2)CC1 | active: 20.6 µM | 
COc1ccc(N(C)S(=O)(=O)c2ccc(Cl)c(C(=O)NNC(=O)c3ccccc3O)c2)cc1 |  | inactive: -8.95%
O=C1CC(c2cccc(O)c2)Oc2ccccc21 (configuration not stated) | inconclusive: 20 µM [activator, single point] | 
Cc1c(C(=O)O)oc2ccc(S(=O)(=O)N3CC(C)CC(C)C3)cc12 (configuration not stated) |  | inactive: 9.08%
c1ccn(-c2ccc(N3CCOCC3)cc2)c1 | inconclusive: 11.6 µM [activator, partial curve] | 
Cc1cc(=O)oc2c(C)c(OC(C)C(=O)NCc3ccccn3)ccc12 (configuration not stated) | inconclusive: 29.1 µM [activator, partial curve, poor fit] | 
Cc1ccc(N(CC(=O)Nc2ccccc2C(=O)NCc2ccco2)S(=O)(=O)c2ccccc2)cc1C | inconclusive: 11.6 µM [inhibitor, partial curve] | 
CCOC(=O)c1c(C)[nH]c(C(=O)OCC(=O)NC(C)C)c1C |  | inactive: -4.15%
Cc1ccccc1NC(=O)c1ccc(F)c(S(=O)(=O)N2CCN(c3ccccn3)CC2)c1 | active: 23.1 µM | 
N#Cc1cc2ccccc2nc1SCC(=O)NC1CC1 | inconclusive: 23.1 µM [activator, single point] | 
CN(C)S(=O)(=O)c1ccc(N2CCCC2)c(C(=O)OCC(=O)NC2(C#N)CCCCC2)c1 | inconclusive: 3.66 µM [inhibitor, partial curve, poor fit] | 
CCOc1ccc(OCCC(=O)N(CCC(C)C)c2c(N)n(Cc3ccccc3)c(=O)[nH]c2=O)cc1 |  | inactive: -17%
Cc1oc(C(=O)O)cc1COc1ccc2c3c(c(=O)oc2c1C)CCC3 | inconclusive: 18.4 µM [activator, single point] | 

Structure (SMILES) | Potency | activity change, negative = inhibition
O=c1[nH]c(N/N=C/c2cc3c(cc2[N+](=O)[O-])OCO3)nc2ccccc12 |  | inactive: 9.67%
O=C(Cc1ccccc1)Nc1nc(-c2ccc(F)c(F)c2)cs1 |  | inactive: -4.95%
Cc1ccc(C(C)C)c(OCCNC(=O)c2ccccc2O)c1 | inconclusive: 14.6 µM [inhibitor, partial curve] | 
O=c1c2ccccc2nc2n1CCO2 |  | inactive: 3.23%
CCOC(=O)C1(Cc2cccc(OC)c2)CCCN(C(=O)c2cc(C)oc2C)C1 (configuration not stated) | inconclusive: 18.3 µM [activator, partial curve] | 
CCOc1ccc2[nH]c(=O)c(CN(Cc3cccs3)Cc3nnnn3C(C)(C)CC)cc2c1 | inconclusive: 23.1 µM [inhibitor, single point] | 
CC1CN(C(=S)NC(=O)c2ccc([N+](=O)[O-])cc2)CC(C)O1 (configuration not stated) | inconclusive: 14.6 µM [activator, partial curve, poor fit] | 
O=C(Cn1cc(-c2nnnn2-c2ccc(Cl)cc2)c(=O)c2ccccc21)c1ccccc1 | inconclusive: 18.4 µM [inhibitor, partial curve, poor fit] | 
C/C(=N\NC(=O)c1ccccc1F)c1ccc2c(c1)Nc1ccccc1S2 | inconclusive: 29.1 µM [inhibitor, single point] | 
c1ccc(CSc2nnc(-c3ccco3)o2)cc1 | inconclusive: 20.6 µM [activator, partial curve] | 
CCNC(=S)N1CCN(C(c2ccccc2)c2ccccc2)CC1 | inconclusive: 25.9 µM [inhibitor, single point] | 
CCN1C(=O)NC(c2ccccc2)C1=O (configuration not stated) |  | inactive: 19.2%
CCOc1ccccc1NC(=O)c1cnc2n(c1=O)CCS2 |  | inactive: 23.5%
COc1cccc(C2c3[nH]c4ccccc4c3CCN2C(=O)c2ccccc2F)c1OC (configuration not stated) | inconclusive: 16.4 µM [inhibitor, partial curve] | 
Cc1cccc(OCC(=O)NCCCNC(=O)c2ccc(C)nc2)c1 |  | inactive: 1.77%
CC(C)(C)c1ccc(OC(=O)Nc2ccc(O)c(C(=O)O)c2)cc1 |  | inactive: 28.1%
CCN(CC)S(=O)(=O)c1ccc(N2CCN(C)CC2)c(NC(=O)COc2ccc(F)cc2Cl)c1 | inconclusive: 29.1 µM [inhibitor, single point] | 
Nc1nc2ccccc2n1C(=O)CCc1ccccc1 | inconclusive: 2 µM [activator, full curve, poor fit] | 
CCn1c(SCC(=O)Nc2ccc(C)cc2)nnc1-c1ccccn1 | inconclusive: 29.1 µM [inhibitor, single point] | 
Oc1ccc(CCNc2ncnc3ccc(Cl)cc23)cc1 | inconclusive: 13 µM [inhibitor, partial curve, poor fit] | 
Cc1cc(C)n2nc(CNS(=O)(=O)c3ccc(F)c(C)c3)nc2n1 |  | inactive: 16.8%
O=C(N/N=C/c1cccc([N+](=O)[O-])c1)c1cc[n+](CCO)cc1 |  | inactive: -13.2%
Cc1cc2oc3c(c(=O)c2cc1C)C(c1cccc(Br)c1)N(Cc1ccco1)C3=O (configuration not stated) | active: 0.631 µM | 
COc1cc(OC)c(NC(=O)c2sc3ncn(CC(=O)N4CCN(c5ccccn5)CC4)c(=O)c3c2C)cc1Cl | inconclusive: 20.6 µM [activator, partial curve, poor fit] | 

In the list so far, four contain bromine.
Structure (SMILES) | Potency | activity change, negative = inhibition
Cc1c(C(=O)Nc2ccc(Br)cc2)cnn1C | inconclusive: 20.6 µM [activator, partial curve] | 
Cc1[nH]nc2c1C(c1cccnc1)N(c1ccc(Br)cc1)C2=O (configuration not stated) | inconclusive: 32.6 µM [inhibitor, single point] | 
COc1ccc(N2CCN(C(=O)c3cccnc3SCc3cccc(Br)c3)CC2)cc1 | inconclusive: 32.6 µM [inhibitor, single point] | 
Cc1cc2oc3c(c(=O)c2cc1C)C(c1cccc(Br)c1)N(Cc1ccco1)C3=O (configuration not stated) | active: 0.631 µM | 
